Patent US11230581B2, “Peptides and combination of peptides for use in immunotherapy against ovarian cancer and other cancers” (Immatics Biotechnologies GmbH, priority 2015, dated 2022)

What was measured:
ovarian cancer samples = assay: Relative LC-MS quantitation of HLA-presented peptides: presentation and over-presentation on ovarian cancer vs a panel of normal tissues (presentation score); set-up: species or system human; key: +++: very highly over-presented on tumors compared to a panel of normal tissues; ++: highly over-presented on tumors compared to a panel of normal tissues; +: over-presented on tumors compared to a panel of normal tissues; conditions: over-presentation on tumors compared to a panel of normal tissues
additional tumor types = assay: LC-MS detection and over-presentation of the peptides on additional tumor types, cell lines and primary cultures; set-up: species or system human; conditions: for Other relevant organs/ cancerous diseases: Table 4A: additional tumor types on which the peptide was found, over-presented on more than 5% of measured tumor samples, or presented on more than 5% with ratio of geometric means tumor vs normal tissues larger than 3
[1] = additional tumor types with over-presentation on more than 5% of the measured tumor samples, or presentation on more than 5% with ratio of geometric means tumor vs normal tissues larger than 3
[2] = amendment of Table 4: additional tumor types showing over-presentation (including specific presentation) on more than 5% of measured tumor samples, or presentation on more than 5% with ratio of geometric means tumor vs normal tissues larger than 3

| Substance | Peptide Presentation (presentation score) (ovarian cancer samples) | Other relevant organs/ cancerous diseases (additional tumor types) | Additional organs/cancerous diseases (additional tumor types; [1]) | Additional organs/cancerous diseases (additional tumor types; [2]) |
| --- | --- | --- | --- | --- |
| 613 (RLLPPGAVVAV; listed as Homo sapiens) [compound 613] | ++ | NSCLC, SCLC, HCC | CLL, BRCA, Urinary Bladder Cancer, Gallbladder Cancer and Bile Duct Cancer, HNSCC |  |
| 394 (LLAVIGGLVYL; listed as Homo sapiens) [compound 394] | + | NSCLC, SCLC, RCC, HCC, PrC, Leukemia, Melanoma, Urinary bladder Cancer | BRCA |  |
| 103 (TLAEEVVAL; listed as Homo sapiens) [compound 103] | +++ | SCLC, BrCa, Esophageal Cancer |  | Melanoma, HNSCC |
| 345 (VIWKALIHL; listed as Homo sapiens) [compound 345] | ++ | SCLC | NSCLC, Melanoma, NHL |  |
| 18 (YLVAKLVEV; listed as Homo sapiens) [compound 18] | +++ |  |  | NSCLC, BRCA, Urinary Bladder Cancer, HNSCC |
| 84 (VTFGEKLLGV; listed as Homo sapiens) [compound 84] | +++ |  |  | Melanoma |
| 38 (FLLEDDIHVS; listed as Homo sapiens) [compound 38] | +++ | SCLC, Leukemia, Melanoma |  | CLL, Urinary Bladder Cancer, NHL |
| 123 (NLWDLTDASVV; listed as Homo sapiens) [compound 123] | +++ | SCLC, Prostate |  | NSCLC, BRCA, Melanoma, Esophageal Cancer, Uterine Cancer, Gallbladder Cancer and Bile Duct Cancer, HNSCC |
| 157 (SLNDEVPEV; listed as Homo sapiens) [compound 157] | +++ | NSCLC, Brain Cancer, HCC, Esophageal Cancer, Uterine Cancer |  | BRCA, Melanoma, Urinary Bladder Cancer, Gallbladder Cancer and Bile Duct Cancer, NHL, HNSCC |
| 167 (KVLEVTEEFGV; listed as Homo sapiens) [compound 167] | ++ | NSCLC, HCC, Melanoma |  | BRCA, Urinary Bladder Cancer |
| 495 (FIFSEKPVFV; listed as Homo sapiens) [compound 495] | + | Urinary bladder Cancer | Melanoma, AML, NHL |  |
| 56 (KLYEGIPVLL; listed as Homo sapiens) [compound 56] | +++ | BrCa |  |  |
| 7 (SLVGLLLYL; listed as Homo sapiens) [compound 7] | +++ | RCC, PC, BrCa |  | Gallbladder Cancer and Bile Duct Cancer, AML |
| 252 (LLIGTDVSL; listed as Homo sapiens) [compound 252] | +++ | PrC, Leukemia, Esophageal Cancer, Urinary bladder Cancer | CLL, NHL |  |
| 191 (LLQEGQALEYV; listed as Homo sapiens) [compound 191] | +++ |  | Uterine Cancer, Gallbladder Cancer and Bile Duct Cancer |  |
| 47 (ILLSVPLLVV; listed as Homo sapiens) [compound 47] | +++ | SCLC, Leukemia, Gallbladder Cancer, Bile Duct Cancer |  | CLL, Uterine Cancer |
| 17 (GLLPGDRLVSV; listed as Homo sapiens) [compound 17] | +++ | NSCLC, SCLC, BrCa |  |  |
| 92 (YLIPFTGIVGL; listed as Homo sapiens) [compound 92] | +++ | SCLC, HCC, Leukemia, Melanoma |  | CLL, AML, NHL, HNSCC |
| 143 (LLLDITPEI; listed as Homo sapiens) [compound 143] | +++ | NSCLC, Brain Cancer, HCC, PC, BrCa, Melanoma, Esophageal Cancer |  |  |
| 54 (SLLEQGKEPWMV; listed as Homo sapiens) [compound 54] | +++ | SCLC, HCC, Gallbladder Cancer, Bile Duct Cancer |  | NSCLC, CLL |
| 498 (KLWTGGLDNTV; listed as Homo sapiens) [compound 498] | + | HCC, Esophageal Cancer | NSCLC, Brain Cancer, CLL, Urinary Bladder Cancer, Uterine Cancer, NHL |  |

| Substance | Peptide Presentation (presentation score) (ovarian cancer samples) | Other relevant organs/ cancerous diseases (additional tumor types) | Additional organs/cancerous diseases (additional tumor types; [1]) | Additional organs/cancerous diseases (additional tumor types; [2]) |
| --- | --- | --- | --- | --- |
| 71 (GILARIASV; listed as Homo sapiens) [compound 71] | +++ |  |  | AML, NHL |
| 352 (SLLELLHIYV; listed as Homo sapiens) [compound 352] | + |  | CLL, AML |  |
| 145 (FLATSGTLAGI; listed as Homo sapiens) [compound 145] | +++ | Prostate |  |  |
| 135 (ALSEVDFQL; listed as Homo sapiens) [compound 135] | +++ | SCLC, Brain Cancer |  |  |
| 82 (FLSSVTYNL; listed as Homo sapiens) [compound 82] | +++ |  |  | Melanoma |
| 228 (AMQEYIAVV; listed as Homo sapiens) [compound 228] | + | NSCLC, SCLC, Uterine Cancer, Gallbladder Cancer, Bile Duct Cancer | PC, Melanoma, HNSCC |  |
| 131 (FVPPVTVFPSL; listed as Homo sapiens) [compound 131] | +++ | BrCa |  | Uterine Cancer |
| 461 (VMFRTPLASV; listed as Homo sapiens) [compound 461] | +++ | SCLC, Melanoma, Esophageal Cancer | BRCA, Urinary Bladder Cancer, Uterine Cancer, NHL |  |
| 473 (AMATESILHFA; listed as Homo sapiens) [compound 473] | +++ | SCLC, Brain Cancer, CRC, HCC, MCC, Gallbladder Cancer, Bile Duct Cancer | AML |  |
| 637 (SIYGGFLLGV; listed as Homo sapiens) [compound 637] | ++ | NSCLC, SCLC, HCC, PrC, BrCa, Uterine Cancer | Urinary Bladder Cancer, Gallbladder Cancer and Bile Duct Cancer, HNSCC |  |
| 98 (LIIDQADIYL; listed as Homo sapiens) [compound 98] | +++ | NSCLC, SCLC, RCC, CRC, HCC, Leukemia, Melanoma, Esophageal Cancer |  | CLL, Urinary Bladder Cancer, Gallbladder Cancer and Bile Duct Cancer, AML, NHL |
| 419 (GQYEGKVSSV; listed as Homo sapiens) [compound 419] | + | HCC | BRCA |  |
| 100 (YLLSTNAQL; listed as Homo sapiens) [compound 100] | +++ |  |  | Urinary Bladder Cancer |
| 261 (YVLEFLEEI; listed as Homo sapiens) [compound 261] | + |  | RCC, CLL, BRCA |  |
| 74 (ALLDPEVLSIFV; listed as Homo sapiens) [compound 74] | +++ | NSCLC, Leukemia, Melanoma |  |  |
| 475 (LLLNEEALAQI; listed as Homo sapiens) [compound 475] | +++ | SCLC, Leukemia |  |  |
| 474 (YLDPALELGPRNV; listed as Homo sapiens) [compound 474] | + | NSCLC, SCLC, Brain Cancer, HCC, MCC, Melanoma | BRCA |  |
| 528 (SVAEGRALMSV; listed as Homo sapiens) [compound 528] | + | Brain Cancer, CRC, HCC, Esophageal Cancer | NSCLC, CLL, BRCA, Urinary Bladder Cancer, Gallbladder Cancer and Bile Duct Cancer, HNSCC |  |
| 64 (YAAPGGLIGV; listed as Homo sapiens) [compound 64] | + | HCC, PC, Melanoma, Esophageal Cancer, Gallbladder Cancer, Bile Duct Cancer |  | NSCLC, SCLC, CLL, BRCA, Urinary Bladder Cancer, Uterine Cancer, AML, NHL, HNSCC |
| 217 (ALIHPVSTV; listed as Homo sapiens) [compound 217] | +++ | NSCLC, RCC, HCC, Melanoma, Esophageal Cancer | Urinary Bladder Cancer BRCA, Urinary Bladder Cancer, Uterine Cancer, Gallbladder Cancer and Bile Duct Cancer |  |
